Test results as given in patent US9005575B2 (STC.UNM, priority 2009, dated 2015).

Assay: general procedure: Fmoc solid-phase peptide synthesis; Sieber amide resin; PyBOP/DIEA (cyclization)
Details: whole synthesis

RGD-Arg-(Arg^11)CCMSH
final purity (method not given): greater than 95% | isolated yield (overall): 30%
